Substitutions are numbered along the chain they refer to. Results are given in words; binding and its absence hold for the method and conditions named. Binding seen in cells or lysates may run through a third protein. Some results given as binding are weak or reduced against the parent protein; the word gives no strength. Where a sequence is shown, tags or fusion partners need not be part of it.
Columns and labels:
[1] = molecular target: T1, Venus‐tagged wild‐type HURP (HURPWT) (human) (UniProt Q15398); assay: co-IP; GFP-trap of YFP/Venus-HURP from lysate of mitotic HeLa cells; the S839A HURP experiments: 50 mM NaCl in lysis and wash buffer; blot with anti-CHC 1:400
T1 sequence: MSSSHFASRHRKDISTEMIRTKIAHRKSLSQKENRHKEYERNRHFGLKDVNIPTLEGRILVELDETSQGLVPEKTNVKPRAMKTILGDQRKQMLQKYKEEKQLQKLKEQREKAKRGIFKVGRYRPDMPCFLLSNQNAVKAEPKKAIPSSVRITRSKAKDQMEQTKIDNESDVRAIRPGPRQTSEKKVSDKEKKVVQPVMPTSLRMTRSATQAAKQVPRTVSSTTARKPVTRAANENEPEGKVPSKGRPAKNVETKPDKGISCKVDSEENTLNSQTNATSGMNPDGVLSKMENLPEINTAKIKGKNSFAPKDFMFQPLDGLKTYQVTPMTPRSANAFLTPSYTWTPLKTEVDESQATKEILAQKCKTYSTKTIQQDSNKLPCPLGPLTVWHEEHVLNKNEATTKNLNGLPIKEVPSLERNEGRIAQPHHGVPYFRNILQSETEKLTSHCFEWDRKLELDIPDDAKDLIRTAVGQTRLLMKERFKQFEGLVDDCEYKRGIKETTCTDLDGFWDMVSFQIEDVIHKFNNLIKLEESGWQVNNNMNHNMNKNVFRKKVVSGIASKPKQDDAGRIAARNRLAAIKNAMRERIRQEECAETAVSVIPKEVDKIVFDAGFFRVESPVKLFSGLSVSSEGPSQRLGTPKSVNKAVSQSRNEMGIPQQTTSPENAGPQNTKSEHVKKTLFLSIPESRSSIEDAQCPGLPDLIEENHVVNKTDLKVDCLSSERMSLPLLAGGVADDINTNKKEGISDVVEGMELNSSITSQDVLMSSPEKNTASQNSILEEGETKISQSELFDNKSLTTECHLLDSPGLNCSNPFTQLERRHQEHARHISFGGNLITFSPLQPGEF

Chains of the proteins cited; added tags and fusions are not shown.
UniProt Q00610: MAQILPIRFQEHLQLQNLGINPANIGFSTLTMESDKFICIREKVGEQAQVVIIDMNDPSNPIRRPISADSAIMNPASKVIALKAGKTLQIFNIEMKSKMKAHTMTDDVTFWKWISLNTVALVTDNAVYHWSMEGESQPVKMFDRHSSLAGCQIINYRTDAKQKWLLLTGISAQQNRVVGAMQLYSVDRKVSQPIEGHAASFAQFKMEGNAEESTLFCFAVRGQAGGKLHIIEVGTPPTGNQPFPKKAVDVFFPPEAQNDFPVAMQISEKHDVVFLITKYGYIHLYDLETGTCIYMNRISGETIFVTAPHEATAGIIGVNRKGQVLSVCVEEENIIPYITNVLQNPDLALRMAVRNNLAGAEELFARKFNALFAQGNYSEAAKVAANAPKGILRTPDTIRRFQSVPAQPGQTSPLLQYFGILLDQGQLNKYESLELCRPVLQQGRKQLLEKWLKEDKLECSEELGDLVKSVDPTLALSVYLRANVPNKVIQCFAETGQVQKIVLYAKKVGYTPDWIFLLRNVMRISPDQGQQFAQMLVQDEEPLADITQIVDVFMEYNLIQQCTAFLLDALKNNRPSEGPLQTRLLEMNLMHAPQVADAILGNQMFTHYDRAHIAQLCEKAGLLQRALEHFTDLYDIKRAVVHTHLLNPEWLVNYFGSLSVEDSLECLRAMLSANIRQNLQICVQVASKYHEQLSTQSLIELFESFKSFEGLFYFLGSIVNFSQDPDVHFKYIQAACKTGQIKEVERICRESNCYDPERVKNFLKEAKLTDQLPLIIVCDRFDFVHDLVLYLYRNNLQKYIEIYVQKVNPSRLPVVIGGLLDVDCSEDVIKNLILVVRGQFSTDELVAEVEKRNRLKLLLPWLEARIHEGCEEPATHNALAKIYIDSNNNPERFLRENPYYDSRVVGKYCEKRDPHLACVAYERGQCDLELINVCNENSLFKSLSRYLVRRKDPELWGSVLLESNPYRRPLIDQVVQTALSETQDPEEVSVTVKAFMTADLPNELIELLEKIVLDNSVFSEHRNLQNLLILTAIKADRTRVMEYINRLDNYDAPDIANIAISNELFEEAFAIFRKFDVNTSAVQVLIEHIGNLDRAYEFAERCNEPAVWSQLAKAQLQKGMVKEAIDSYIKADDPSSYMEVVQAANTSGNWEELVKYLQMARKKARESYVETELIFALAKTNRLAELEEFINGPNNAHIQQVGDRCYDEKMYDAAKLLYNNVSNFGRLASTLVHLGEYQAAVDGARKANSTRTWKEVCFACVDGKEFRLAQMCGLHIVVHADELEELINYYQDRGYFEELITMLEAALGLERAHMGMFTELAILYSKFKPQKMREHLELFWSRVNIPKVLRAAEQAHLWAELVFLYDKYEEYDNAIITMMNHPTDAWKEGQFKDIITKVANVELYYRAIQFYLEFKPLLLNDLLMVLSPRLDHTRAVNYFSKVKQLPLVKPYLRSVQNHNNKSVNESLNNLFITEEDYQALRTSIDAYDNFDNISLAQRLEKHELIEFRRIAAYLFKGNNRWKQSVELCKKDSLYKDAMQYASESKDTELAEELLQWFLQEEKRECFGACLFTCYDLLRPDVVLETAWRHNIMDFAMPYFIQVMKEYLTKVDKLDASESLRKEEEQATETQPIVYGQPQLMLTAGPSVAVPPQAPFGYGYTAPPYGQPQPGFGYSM

[2] = molecular target: T2, Venus‐tagged C‐terminally truncated HURP (HURP_(ΔMUT)) (human) (UniProt Q15398); assay: as above
T2 sequence: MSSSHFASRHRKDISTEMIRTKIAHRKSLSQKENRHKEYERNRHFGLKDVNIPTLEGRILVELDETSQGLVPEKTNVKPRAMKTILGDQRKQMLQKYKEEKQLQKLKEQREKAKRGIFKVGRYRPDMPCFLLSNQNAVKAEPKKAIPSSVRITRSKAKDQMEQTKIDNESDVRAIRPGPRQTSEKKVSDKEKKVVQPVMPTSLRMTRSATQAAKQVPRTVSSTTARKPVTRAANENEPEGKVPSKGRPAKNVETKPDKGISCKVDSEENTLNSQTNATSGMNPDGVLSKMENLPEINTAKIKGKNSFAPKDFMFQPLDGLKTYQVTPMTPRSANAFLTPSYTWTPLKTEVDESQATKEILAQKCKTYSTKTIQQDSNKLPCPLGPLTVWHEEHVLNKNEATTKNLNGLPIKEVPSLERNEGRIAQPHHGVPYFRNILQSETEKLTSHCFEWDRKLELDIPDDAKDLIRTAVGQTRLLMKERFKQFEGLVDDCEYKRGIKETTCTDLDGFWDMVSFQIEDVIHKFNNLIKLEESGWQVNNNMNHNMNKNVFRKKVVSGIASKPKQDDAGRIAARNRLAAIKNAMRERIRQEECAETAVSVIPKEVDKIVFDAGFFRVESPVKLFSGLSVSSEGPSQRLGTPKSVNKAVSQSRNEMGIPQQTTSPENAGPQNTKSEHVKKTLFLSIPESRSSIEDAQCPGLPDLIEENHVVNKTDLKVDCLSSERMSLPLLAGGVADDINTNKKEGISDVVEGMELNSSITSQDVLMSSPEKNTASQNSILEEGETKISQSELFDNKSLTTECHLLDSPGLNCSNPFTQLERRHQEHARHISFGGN

[3] = molecular target: T3, Venus‐tagged S839A HURP (HURP_(S839A)) (human) (UniProt Q15398); assay: as above
T3 sequence: T1 sequence with S839A

[4] = molecular target: T1, Venus‐tagged wild‐type HURP (HURPWT) (human); assay: co-IP; as a5, but early S phase HeLa cells (collected after 24 h of 2.5 mM thymidine)
[5] = molecular target: T1, Venus‐tagged wild‐type HURP (HURPWT) (human); assay: co-IP; GFP-trap of YFP/Venus-HURP from lysate of mitotic HeLa cells (thymidine, then nocodazole, shake-off); lysis 100 mM NaCl, wash 150 mM NaCl, 0.05% NP-40; blot with anti-CHC
[6] = molecular target: T2, Venus‐tagged C‐terminally truncated HURP (HURP_(ΔMUT)) (human); assay: as above

- binding [1]: binds
- binding [2]: no binding
- binding [3]: no binding
- binding [5]: binds
- binding [6]: no binding
Substance: clathrin (from UniProt Q00610 1-1675)
- binding [4]: no binding (condition: early S phase cells)

Reference: PMC10333884, “Large‐scale phosphomimetic screening identifies phospho‐modulated motif‐based protein interactions” (Molecular Systems Biology, 2023)
